The assay concerns Candida albicans. The experiment in a line: Antifungal activity against Candida albicans 10261 at 100 units/disk by disk diffusion assay. It is filed as functional, organism-based.

From ChEMBL document CHEMBL1147364, “An antifungal bibenzyl from the New Zealand liverwort, Plagiochila stephensoniana. Bioactivity-directed isolation, synthesis, and analysis” (J Nat Prod, 1993) come the findings set out here.

NYSTATIN displayed an inhibition zone (IZ) of 10 mm.
